Results from JP2006523083A.
No constants are given. Whether binding was seen depends on the method and setting. Some results given as binding are weak or reduced against the parent protein; the word gives no strength.

T1: ビオチン化EpoR(Abbott CHO細胞由来 ref.#RB69084:4) (UniProt P19235)
T1 sequence (biotinylated with biotin-NHS (sites not stated), looked up): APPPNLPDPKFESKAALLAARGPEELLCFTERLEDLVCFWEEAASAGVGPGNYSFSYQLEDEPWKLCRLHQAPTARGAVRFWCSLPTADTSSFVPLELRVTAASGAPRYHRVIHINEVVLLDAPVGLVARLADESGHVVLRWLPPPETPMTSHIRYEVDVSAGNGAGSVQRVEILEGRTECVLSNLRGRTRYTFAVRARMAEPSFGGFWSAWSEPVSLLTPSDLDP


Biological target: T1, ビオチン化EpoR(Abbott CHO細胞由来 ref.#RB69084:4)
Test: ELISA, biotin-EpoR on streptavidin plate, HEK293 supernatant, anti-human IgG Fc-HRP

binding | Binder
binds | Ab198 (antibody, V domains shown) VH: QVQLVESGGGVVQPGRSLRLSCVASGFTFSSYGMHWVRQAPGKGLEWVAVISYDGSNKYYADSVKGRFTISRDNSKNTLYLQMNSLRVEDTAVYYCARDHGGRYVYDYGMDVWGQGTTVTVSS VL: DIQMTQSPSSVSASIGDRVSITCRASQGISSWLAWYQQKPGKAPTLLIYAASTLQRGVPSRFSGSGSGTDFTLTISSLQPEDFATYFCQQANSFPFTFGPGTKVDIK
binds | Ab12 (antibody, V domains shown) VH: QVQLQESGPGLVKPSETLSLTCTVSGASISSYYWSWIRQPPGKGLEWIGYIYYSGSTNYNPSLKSRVTISVDTSKNQFSLKLRSVTAADTAVYYCARERLGIGDYWGQGTLVTVSS VL: DIQLTQSPSSLSASVGDRVTITCRASQGIRNDLGWYQQKPGKAPKRLIYAASSLQSGVPSRFSGSGSGTEFTLTISSLQPEDFATYYCLQHNTYPPTFGQGTKVEIK
